Source: US20040116385A1, “Treating and preventing viral infections with porphyrin-based compounds” (priority 2002, published 2004)
Some entries share one result that the patent states for a list of compounds.

Tested on: 9L cells
Assay: Cellular uptake in 9L cells (intracellular boron)
Type: cell-based, rat
Details: 10 μM, 24-hour exposure

Row | Substance | intracellular levels of boron
1 | meso-tetra[3-(1-methyl-nido-carboranyl)methylphenyl]porphyrin tetrapotassium salt [Compound 10] | > 60 μg of boron per billion cells (or gram of wet tissue)
2 | meso-tetra[4-(1-methyl-nido-arboranyl)methylphenyl]porphyrin tetrapotassium salt [Compound 4] | > 60 μg of boron per billion cells (or gram of wet tissue)
